Earlier results in patent US20060241174A1, “Vitamin E tocotrienols inhibition of intracellularly obligate pathogen Chlamydia and methods of use” (priority 2005, published 2006).
At least one structure is not confirmed: it was looked up by name or label, or the drawing left a doubt.

Conditions: 2-year study; hyperlipidemic patients positive for C. pneumoniae; cited from earlier work

Compound: CC[C@H](C)C(=O)O[C@H]1C[C@H](O)C=C2C=C[C@H](C)[C@H](CC[C@@H](O)C[C@@H](O)CC(=O)O)[C@H]21 [pravastatin]
- drop in serum total- and LDL-cholesterol: 1-2%
- reduction of carotid atherosclerosis: 12%
